Measurements from article PMC8435428.
Results are given in words; binding and its absence hold for the method and conditions named. In cells and extracts the contact can be indirect. Some results given as binding are weak or reduced against the parent protein; the word gives no strength. Tags and fused reporters may be left off the sequences shown.

By UniProt entry, the sequences of proteins in these tests, tags left out.
UniProt Q15672: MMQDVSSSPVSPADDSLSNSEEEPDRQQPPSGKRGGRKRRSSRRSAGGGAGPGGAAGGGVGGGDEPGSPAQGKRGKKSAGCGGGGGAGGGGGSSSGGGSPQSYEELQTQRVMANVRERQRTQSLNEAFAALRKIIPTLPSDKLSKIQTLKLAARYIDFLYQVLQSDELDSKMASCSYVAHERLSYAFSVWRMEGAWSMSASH

Target: T1, Flag-tagged human hexokinase 2 (HK2) (human) (UniProt P52789)
T1 sequence: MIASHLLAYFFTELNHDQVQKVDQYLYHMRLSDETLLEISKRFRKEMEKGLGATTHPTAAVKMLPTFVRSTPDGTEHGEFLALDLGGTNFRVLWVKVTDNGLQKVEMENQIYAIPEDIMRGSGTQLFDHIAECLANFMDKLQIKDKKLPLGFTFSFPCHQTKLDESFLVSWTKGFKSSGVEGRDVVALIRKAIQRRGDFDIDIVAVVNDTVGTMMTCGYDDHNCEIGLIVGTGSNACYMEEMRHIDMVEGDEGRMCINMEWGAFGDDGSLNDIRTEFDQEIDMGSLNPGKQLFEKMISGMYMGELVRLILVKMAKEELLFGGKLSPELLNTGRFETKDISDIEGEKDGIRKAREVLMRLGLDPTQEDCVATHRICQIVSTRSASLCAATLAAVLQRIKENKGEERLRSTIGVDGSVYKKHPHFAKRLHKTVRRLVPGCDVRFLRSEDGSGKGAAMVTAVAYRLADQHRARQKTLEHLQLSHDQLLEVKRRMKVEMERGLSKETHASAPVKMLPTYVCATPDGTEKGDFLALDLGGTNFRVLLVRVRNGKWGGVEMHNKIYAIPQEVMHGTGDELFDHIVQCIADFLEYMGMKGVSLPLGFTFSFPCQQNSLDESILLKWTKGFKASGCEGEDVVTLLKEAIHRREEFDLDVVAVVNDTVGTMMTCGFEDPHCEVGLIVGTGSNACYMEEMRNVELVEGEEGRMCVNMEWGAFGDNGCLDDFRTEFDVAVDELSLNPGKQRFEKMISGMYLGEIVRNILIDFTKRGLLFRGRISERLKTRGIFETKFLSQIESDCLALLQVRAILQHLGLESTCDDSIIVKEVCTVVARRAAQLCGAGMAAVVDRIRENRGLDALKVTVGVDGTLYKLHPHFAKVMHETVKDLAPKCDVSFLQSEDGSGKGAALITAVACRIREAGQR
Test: co-IP; RKO cells transfected with Flag-tagged HK2 plasmid or HA-tagged Twist1 for 48 h, lysed; supernatants incubated with anti-DYDDDDK or anti-HA magnetic beads at 4°C overnight; immunoblotting

HA-tagged human Twist family bHLH transcription factor 1 (Twist1) (from UniProt Q15672 1-202)
binding: binds
